These are yes or no findings as the source states them, for the method shown. A result given as binding can be weak or reduced; the word gives no strength.
Molecular target: T1, Cub-OsPT4 (split-ubiquitin bait, pBT3-N) (rice (Oryza sativa)) (UniProt Q8H6H2)
T1 sequence: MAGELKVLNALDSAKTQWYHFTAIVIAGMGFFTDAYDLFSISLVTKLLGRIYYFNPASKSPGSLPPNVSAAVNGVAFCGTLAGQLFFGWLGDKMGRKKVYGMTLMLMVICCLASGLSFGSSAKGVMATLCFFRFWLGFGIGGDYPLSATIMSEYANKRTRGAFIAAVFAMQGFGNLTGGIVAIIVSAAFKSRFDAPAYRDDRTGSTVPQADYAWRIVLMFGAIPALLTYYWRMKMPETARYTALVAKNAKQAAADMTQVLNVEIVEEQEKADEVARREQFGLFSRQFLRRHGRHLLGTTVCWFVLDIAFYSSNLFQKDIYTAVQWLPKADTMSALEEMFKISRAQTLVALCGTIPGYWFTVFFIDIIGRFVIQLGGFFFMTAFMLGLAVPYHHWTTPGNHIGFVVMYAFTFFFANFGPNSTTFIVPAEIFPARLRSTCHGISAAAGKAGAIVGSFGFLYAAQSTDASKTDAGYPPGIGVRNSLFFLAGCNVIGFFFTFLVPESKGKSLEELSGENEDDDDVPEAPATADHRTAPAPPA
Test: two-hybrid; split-ubiquitin yeast two-hybrid, DUAL membrane pairwise interaction kit (Dualsystems Biotech); OsPT4 as Cub bait (pBT3-N), OsAIPR2 as NubG prey (pPR3-N)

By UniProt entry, the sequences of proteins in these tests, tags left out. Where a name states a change or a piece, a line headed by the entry shows the natural chain unless it says otherwise.
UniProt B7ECY2: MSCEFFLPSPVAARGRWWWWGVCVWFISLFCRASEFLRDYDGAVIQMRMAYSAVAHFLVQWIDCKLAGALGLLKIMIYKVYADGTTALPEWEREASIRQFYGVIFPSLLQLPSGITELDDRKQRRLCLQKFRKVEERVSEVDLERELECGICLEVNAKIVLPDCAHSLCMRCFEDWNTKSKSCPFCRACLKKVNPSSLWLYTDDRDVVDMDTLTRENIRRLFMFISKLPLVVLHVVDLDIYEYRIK

NubG-OsAIRP2 (split-ubiquitin prey, pPR3-N) (from UniProt B7ECY2)
binding: binds
